{
  "sequences": {"note": "Chains of the proteins cited; added tags and fusions are not shown.", "UniProt Q99942": "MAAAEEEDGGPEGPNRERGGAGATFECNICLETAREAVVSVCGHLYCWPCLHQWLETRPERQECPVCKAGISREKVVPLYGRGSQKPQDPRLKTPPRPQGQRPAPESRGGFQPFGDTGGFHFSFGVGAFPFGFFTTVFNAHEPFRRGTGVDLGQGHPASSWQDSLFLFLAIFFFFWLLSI"},
  "source": "paper PMC7971890",
  "molecular_target": "T1, In vitro-translated IRF3 (UniProt Q14653)",
  "T1 sequence": "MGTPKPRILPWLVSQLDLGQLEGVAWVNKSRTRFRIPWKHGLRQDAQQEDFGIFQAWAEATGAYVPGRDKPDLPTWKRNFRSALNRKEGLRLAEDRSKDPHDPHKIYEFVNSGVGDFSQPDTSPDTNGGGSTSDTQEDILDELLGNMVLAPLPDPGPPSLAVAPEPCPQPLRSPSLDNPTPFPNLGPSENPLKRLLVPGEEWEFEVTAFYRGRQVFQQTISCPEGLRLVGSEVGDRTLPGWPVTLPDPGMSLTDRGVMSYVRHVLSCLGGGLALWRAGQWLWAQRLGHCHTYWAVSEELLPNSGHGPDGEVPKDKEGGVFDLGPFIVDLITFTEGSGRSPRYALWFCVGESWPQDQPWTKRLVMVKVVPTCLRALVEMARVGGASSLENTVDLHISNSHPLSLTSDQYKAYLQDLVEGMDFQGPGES",
  "experiment": "co-IP; in vitro transcribed and translated IRF3 and RNF5 mixed, IP with IRF3 antibody (Fig 6H, far-right panel)",
  "note": "Results are given in words; binding and its absence hold for the method and conditions named. In cells and extracts the contact can be indirect.",
  "data": [
    {"substance": "In vitro-translated RNF5 (from UniProt Q99942 1-180) (enzyme)", "values": [
      {"measurement": "binding", "value": "no binding"}
    ]}
  ]
}
